These are yes or no findings as the source states them, for the method shown. In cells and extracts the contact can be indirect. Some binding calls cover weakened binding; strength is not graded here.
How the values were obtained:
[1] = target: Tead4 (mouse (endogenous in Wnt-Met spheres)) (UniProt Q62296); assay: co-IP
[2] = target: wildtype β-catenin (mouse (endogenous in Wnt-Met spheres)) (UniProt Q02248); assay: co-IP

Chains of the proteins cited; added tags and fusions are not shown.
UniProt Q62296: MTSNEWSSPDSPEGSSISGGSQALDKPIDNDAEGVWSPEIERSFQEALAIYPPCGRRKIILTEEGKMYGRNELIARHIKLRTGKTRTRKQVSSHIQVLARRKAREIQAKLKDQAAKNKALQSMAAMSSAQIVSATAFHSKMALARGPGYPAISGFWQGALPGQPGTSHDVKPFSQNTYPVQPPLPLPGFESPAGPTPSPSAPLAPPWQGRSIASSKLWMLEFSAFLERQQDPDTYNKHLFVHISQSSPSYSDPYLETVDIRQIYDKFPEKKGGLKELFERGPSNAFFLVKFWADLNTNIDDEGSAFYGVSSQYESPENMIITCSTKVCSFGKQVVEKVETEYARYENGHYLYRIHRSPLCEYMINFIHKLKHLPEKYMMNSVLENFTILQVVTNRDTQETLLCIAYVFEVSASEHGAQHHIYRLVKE
UniProt Q02248: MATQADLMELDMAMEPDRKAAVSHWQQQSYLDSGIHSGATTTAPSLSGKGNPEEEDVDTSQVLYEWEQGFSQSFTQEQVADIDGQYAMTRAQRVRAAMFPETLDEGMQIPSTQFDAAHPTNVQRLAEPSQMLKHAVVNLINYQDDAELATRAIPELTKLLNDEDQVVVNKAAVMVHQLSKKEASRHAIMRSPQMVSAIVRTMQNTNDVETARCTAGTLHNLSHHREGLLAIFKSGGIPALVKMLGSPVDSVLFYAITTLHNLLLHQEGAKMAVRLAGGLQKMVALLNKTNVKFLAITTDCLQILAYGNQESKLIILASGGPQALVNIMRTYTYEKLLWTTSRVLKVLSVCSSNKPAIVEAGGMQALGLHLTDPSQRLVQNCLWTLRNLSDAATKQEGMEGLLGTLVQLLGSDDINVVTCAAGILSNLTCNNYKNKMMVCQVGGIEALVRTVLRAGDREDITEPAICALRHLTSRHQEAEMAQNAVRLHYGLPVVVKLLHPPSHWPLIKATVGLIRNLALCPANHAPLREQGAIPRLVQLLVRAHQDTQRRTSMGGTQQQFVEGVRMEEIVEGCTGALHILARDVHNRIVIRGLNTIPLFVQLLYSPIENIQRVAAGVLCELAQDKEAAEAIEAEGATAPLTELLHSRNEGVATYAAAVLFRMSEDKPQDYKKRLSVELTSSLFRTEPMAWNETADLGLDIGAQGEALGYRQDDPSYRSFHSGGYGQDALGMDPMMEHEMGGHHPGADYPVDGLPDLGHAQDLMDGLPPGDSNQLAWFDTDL
UniProt P46938: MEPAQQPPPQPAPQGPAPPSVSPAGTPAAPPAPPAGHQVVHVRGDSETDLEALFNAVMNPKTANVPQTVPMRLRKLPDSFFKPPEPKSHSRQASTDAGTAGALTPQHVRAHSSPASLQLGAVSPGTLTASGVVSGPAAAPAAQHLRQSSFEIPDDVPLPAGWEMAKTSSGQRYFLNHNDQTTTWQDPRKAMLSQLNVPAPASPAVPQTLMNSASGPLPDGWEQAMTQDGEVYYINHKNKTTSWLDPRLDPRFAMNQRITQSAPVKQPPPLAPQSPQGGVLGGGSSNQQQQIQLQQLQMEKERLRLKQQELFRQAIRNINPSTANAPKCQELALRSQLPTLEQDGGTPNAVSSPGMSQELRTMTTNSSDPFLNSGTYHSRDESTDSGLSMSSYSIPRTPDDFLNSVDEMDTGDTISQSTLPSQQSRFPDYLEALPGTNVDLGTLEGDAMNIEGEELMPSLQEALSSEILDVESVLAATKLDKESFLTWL

Active YAP (Yes-associated protein) (from UniProt P46938 1-488)
binding [1]: binds
binding [2]: binds

— paper doi:10.1101/2020.06.05.115881
